Data as given in paper PMC8602451.

Amino acid sequences for entries named in this document (tags omitted). A change or cut given only in a name is not applied to a line headed by its entry. Chains listed by the source or under a name are the forms on record and can include a tag or linker.
FLTbID-PML^WT (P29590, form named): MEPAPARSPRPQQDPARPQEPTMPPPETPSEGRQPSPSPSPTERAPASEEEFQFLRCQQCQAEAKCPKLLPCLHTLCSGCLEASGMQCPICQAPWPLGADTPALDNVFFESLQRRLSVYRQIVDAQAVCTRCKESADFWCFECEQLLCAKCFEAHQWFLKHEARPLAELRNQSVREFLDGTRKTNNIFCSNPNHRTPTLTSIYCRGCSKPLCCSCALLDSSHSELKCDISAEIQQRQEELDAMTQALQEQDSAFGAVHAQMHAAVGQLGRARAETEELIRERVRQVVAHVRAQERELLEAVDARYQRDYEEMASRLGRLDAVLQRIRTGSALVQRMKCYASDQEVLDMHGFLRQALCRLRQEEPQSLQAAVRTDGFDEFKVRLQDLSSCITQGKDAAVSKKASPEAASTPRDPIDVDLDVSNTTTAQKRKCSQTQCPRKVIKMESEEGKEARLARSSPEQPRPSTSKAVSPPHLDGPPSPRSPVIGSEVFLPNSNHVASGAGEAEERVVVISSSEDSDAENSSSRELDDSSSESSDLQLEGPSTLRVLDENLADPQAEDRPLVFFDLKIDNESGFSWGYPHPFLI
UniProt P51587: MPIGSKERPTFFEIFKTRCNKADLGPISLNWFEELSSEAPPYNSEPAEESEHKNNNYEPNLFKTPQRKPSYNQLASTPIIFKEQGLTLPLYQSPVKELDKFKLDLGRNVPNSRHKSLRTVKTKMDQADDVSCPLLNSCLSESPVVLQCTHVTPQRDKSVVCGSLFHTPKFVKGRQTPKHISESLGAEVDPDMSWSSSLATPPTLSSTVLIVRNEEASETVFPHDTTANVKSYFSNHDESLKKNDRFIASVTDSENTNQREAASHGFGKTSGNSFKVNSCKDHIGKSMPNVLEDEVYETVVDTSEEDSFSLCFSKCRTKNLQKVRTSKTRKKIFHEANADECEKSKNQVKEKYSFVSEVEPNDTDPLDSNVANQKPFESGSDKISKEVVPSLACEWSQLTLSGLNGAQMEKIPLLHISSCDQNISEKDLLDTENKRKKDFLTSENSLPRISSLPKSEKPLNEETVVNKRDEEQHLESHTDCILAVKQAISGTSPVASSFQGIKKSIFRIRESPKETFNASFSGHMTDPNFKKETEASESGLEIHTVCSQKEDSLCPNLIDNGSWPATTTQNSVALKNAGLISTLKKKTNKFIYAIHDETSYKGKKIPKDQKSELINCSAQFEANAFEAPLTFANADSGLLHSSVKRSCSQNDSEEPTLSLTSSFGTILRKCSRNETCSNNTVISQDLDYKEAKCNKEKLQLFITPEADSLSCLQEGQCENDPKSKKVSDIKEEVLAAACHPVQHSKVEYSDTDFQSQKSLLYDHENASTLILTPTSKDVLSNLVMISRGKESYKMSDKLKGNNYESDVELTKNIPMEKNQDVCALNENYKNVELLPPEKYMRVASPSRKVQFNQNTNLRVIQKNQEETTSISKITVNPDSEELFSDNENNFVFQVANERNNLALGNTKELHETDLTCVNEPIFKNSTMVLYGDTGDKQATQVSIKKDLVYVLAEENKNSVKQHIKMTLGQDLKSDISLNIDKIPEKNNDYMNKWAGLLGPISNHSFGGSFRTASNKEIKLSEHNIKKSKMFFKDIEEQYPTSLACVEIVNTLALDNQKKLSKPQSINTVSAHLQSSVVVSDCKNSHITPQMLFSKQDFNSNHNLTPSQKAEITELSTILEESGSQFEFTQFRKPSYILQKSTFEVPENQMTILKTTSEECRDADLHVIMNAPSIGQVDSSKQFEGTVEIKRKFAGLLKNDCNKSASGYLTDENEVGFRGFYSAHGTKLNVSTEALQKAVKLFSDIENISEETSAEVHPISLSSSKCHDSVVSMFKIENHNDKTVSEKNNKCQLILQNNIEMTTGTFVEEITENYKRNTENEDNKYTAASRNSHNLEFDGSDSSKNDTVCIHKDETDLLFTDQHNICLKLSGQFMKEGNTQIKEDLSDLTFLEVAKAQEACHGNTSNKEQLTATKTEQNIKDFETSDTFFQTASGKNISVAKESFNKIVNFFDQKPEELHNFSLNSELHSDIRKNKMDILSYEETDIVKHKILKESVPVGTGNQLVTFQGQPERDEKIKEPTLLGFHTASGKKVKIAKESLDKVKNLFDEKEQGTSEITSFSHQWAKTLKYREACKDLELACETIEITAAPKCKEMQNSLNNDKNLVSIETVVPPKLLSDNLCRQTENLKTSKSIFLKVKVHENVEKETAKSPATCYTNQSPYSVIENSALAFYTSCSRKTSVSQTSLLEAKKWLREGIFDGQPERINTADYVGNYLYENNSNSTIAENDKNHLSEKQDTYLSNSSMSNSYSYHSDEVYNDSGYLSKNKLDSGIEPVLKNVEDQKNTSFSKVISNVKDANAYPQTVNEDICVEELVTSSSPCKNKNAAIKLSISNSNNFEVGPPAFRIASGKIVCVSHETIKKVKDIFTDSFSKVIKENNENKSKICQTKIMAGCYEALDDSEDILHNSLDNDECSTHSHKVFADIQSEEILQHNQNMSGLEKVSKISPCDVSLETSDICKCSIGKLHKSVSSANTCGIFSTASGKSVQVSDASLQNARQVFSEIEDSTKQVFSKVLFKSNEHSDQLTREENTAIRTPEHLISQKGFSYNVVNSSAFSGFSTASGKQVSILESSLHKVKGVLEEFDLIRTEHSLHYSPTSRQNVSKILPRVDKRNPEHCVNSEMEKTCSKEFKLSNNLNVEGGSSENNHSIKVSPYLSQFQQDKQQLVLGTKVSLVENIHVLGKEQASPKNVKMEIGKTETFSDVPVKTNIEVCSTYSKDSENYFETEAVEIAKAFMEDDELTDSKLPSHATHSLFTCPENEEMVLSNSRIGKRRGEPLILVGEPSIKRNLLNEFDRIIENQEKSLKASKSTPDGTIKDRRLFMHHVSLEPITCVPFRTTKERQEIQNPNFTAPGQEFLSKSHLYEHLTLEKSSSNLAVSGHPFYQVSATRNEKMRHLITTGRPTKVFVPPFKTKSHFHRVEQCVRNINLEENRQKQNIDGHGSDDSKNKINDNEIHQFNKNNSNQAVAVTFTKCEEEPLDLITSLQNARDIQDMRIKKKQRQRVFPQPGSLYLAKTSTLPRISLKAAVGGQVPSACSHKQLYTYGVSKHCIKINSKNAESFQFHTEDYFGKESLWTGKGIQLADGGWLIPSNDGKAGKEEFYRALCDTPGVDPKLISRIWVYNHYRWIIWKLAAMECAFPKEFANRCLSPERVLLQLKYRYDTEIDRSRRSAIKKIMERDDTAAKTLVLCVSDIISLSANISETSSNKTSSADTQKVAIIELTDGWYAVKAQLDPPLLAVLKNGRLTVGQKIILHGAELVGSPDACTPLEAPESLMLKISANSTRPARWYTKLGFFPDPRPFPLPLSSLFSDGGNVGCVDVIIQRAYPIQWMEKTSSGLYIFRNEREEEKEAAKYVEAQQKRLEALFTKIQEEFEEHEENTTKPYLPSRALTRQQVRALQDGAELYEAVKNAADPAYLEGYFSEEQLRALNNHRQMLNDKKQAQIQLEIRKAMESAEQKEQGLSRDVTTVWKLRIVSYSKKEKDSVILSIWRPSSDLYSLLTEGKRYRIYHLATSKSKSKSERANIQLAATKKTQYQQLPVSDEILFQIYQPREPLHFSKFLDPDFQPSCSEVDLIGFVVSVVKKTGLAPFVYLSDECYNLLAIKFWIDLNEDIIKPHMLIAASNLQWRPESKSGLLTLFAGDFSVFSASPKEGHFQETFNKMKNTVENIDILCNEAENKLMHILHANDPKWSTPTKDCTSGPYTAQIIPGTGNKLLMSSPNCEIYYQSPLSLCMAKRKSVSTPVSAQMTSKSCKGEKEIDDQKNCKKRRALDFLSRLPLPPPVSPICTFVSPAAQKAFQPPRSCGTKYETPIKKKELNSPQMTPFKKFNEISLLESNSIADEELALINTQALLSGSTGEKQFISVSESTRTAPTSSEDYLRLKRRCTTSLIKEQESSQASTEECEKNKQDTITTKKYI
UniProt O75928: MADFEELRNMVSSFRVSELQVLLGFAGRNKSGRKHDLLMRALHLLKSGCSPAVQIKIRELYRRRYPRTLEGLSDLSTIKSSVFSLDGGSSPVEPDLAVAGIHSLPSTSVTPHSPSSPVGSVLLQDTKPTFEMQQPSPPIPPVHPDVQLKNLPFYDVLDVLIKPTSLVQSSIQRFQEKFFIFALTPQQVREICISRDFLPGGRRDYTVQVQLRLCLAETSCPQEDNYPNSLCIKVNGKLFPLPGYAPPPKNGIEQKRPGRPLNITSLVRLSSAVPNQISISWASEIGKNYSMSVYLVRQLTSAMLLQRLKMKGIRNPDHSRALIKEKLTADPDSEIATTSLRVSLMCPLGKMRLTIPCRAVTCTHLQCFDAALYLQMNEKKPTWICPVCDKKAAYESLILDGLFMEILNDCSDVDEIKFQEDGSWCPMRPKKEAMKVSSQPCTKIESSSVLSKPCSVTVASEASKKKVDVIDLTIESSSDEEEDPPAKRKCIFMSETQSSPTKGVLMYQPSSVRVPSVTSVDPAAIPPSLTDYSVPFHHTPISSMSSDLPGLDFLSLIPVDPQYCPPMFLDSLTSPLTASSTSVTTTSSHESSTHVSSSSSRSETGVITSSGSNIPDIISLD
UniProt P40763: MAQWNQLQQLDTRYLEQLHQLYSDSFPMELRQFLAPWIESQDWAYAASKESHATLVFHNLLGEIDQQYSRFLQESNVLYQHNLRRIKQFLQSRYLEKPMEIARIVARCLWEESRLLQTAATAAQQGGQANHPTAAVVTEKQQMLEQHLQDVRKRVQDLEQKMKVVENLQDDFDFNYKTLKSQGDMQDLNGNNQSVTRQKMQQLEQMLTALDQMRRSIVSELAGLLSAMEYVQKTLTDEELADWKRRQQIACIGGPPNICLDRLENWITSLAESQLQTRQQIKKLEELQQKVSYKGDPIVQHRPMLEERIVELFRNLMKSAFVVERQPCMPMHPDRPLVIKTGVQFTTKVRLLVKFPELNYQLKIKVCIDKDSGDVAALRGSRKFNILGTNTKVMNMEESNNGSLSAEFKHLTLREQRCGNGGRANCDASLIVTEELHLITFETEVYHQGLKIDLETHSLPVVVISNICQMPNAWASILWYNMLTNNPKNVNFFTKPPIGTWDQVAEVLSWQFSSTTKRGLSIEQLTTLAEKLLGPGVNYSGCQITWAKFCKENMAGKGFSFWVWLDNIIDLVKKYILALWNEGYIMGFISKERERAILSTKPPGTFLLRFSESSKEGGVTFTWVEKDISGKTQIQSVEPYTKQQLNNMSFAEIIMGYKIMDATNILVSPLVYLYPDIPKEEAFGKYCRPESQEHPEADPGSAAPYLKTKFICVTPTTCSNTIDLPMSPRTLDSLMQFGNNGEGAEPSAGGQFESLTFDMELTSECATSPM
UniProt Q9UPN9: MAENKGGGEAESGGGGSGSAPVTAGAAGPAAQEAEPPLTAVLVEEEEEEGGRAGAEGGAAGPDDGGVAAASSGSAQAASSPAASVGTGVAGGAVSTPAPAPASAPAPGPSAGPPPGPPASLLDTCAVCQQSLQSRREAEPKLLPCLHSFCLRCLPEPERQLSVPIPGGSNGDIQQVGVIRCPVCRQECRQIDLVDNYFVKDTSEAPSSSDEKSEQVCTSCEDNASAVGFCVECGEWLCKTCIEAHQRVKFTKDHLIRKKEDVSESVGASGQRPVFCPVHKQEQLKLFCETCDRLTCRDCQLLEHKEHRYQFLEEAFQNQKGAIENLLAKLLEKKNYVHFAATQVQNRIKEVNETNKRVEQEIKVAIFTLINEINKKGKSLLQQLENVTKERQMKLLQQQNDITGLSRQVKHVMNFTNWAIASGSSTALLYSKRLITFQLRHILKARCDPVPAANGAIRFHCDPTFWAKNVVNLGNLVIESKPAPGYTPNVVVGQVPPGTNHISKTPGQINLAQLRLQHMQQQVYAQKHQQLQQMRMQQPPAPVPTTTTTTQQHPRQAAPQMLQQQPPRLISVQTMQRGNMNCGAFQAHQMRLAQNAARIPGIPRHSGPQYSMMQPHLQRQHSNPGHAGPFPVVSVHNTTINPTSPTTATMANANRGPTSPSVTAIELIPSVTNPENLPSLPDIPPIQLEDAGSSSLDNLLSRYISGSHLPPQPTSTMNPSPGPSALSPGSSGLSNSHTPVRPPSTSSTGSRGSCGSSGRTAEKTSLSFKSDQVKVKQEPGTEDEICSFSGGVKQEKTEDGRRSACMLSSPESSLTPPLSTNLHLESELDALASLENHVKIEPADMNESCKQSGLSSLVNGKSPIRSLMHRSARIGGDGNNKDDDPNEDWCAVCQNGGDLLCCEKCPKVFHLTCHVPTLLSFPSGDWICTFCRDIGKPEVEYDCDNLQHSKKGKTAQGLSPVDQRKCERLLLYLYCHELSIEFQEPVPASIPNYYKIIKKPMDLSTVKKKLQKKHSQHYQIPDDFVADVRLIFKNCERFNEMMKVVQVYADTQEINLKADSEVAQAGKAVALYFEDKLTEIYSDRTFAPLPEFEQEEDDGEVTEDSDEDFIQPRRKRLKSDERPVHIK

T1: FLAG-NTurboID^194-SALL1^ΔSUMO (UniProt Q9NSC2)
T1 sequence: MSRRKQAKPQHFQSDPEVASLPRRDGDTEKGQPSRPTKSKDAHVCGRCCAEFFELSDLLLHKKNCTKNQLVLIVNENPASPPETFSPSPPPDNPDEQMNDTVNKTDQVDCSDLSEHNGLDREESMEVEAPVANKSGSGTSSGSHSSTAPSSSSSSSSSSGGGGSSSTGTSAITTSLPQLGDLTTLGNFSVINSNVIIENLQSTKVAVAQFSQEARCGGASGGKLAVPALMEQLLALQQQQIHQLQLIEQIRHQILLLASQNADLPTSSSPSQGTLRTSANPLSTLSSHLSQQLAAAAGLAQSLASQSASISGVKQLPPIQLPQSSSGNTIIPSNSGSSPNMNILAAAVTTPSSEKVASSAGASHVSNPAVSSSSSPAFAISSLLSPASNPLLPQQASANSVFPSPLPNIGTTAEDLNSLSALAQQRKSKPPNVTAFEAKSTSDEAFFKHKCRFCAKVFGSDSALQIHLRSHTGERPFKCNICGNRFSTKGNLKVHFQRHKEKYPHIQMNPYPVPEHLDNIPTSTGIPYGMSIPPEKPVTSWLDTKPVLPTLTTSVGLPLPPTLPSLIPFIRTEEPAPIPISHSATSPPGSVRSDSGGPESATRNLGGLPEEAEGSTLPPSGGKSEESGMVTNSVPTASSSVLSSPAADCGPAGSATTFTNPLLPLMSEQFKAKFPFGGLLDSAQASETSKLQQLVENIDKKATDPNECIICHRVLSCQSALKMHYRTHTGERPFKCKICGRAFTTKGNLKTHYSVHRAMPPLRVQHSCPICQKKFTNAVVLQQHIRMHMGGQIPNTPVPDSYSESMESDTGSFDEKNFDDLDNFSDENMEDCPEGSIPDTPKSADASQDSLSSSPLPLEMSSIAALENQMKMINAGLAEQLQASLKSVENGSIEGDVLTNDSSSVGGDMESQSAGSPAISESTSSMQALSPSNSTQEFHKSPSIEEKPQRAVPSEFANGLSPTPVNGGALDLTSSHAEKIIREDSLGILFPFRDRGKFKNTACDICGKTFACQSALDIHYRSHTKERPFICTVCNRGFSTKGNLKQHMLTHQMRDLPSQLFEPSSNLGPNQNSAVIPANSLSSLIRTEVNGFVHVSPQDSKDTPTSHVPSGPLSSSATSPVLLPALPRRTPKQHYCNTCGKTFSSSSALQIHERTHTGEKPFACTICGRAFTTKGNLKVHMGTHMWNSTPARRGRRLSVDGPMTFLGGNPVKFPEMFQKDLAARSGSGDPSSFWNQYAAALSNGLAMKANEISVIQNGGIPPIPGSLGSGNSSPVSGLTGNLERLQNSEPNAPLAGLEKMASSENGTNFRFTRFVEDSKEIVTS


Each molecule was assayed against FLTbID-PML^WT (human) (UniProt P29590) (assay: proximity labelling; full-length TurboID fused to PML^WT or PML^3MAS, or TurboID alone, in U2OS stable cells; biotin 50 uM 2 h, with or without ATO 1 uM 2 h; NeutrAvidin pull-down, LC-MS/MS).

Molecule | binding
BRCA2 (from UniProt P51587 1-3418) | binds
PIAS2 (from UniProt O75928 1-621) | binds
STAT3 (from UniProt P40763 1-770) | binds
TRIM33 (from UniProt Q9UPN9 1-1127) | binds
PIAS4 (protein, UniProt Q8N2W9 1-510) MAAELVEAKNMVMSFRVSDLQMLLGFVGRSKSGLKHELVTRALQLVQFDCSPELFKKIKELYETRYAKKNSEPAPQPHRPLDPLTMHSTYDRAGAVPRTPLAGPNIDYPVLYGKYLNGLGRLPAKTLKPEVRLVKLPFFNMLDELLKPTELVPQNNEKLQESPCIFALTPRQVELIRNSRELQPGVKAVQVVLRICYSDTSCPQEDQYPPNIAVKVNHSYCSVPGYYPSNKPGVEPKRPCRPINLTHLMYLSSATNRITVTWGNYGKSYSVALYLVRQLTSSELLQRLKTIGVKHPELCKALVKEKLRLDPDSEIATTGVRVSLICPLVKMRLSVPCRAETCAHLQCFDAVFYLQMNEKKPTWMCPVCDKPAPYDQLIIDGLLSKILSECEDADEIEYLVDGSWCPIRAEKERSCSPQGAILVLGPSDANGLLPAPSVNGSGALGSTGGGGPVGSMENGKPGADVVDLTLDSSSSSEDEEEEEEEEEDEDEEGPRPKRRCPFQKGLVPAC | binds

Further lines, results first:

binding | Molecule
binds | JUN (from UniProt P05412 1-331)
binds | SENP5 (protein, UniProt Q96HI0 1-755) MKKQRKILWRKGIHLAFSEKWNTGFGGFKKFYFHQHLCILKAKLGRPVTWNRQLRHFQGRKKALQIQKTWIKDEPLCAKTKFNVATQNVSTLSSKVKRKDAKHFISSSKTLLRLQAEKLLSSAKNSDHEYCREKNLLKAVTDFPSNSALGQANGHRPRTDPQPSDFPMKFNGESQSPGESGTIVVTLNNHKRKGFCYGCCQGPEHHRNGGPLIPKKFQLNQHRRIKLSPLMMYEKLSMIRFRYRILRSQHFRTKSKVCKLRKAQRSWVQKVTGDHQETRRENGEGGSCSPFPSPEPKDPSCRHQPYFPDMDSSAVVKGTNSHVPDCHTKGSSFLGKELSLDEAFPDQQNGSATNAWDQSSCSSPKWECTELIHDIPLPEHRSNTMFISETEREIMTLGQENQTSSVSDDRVKLSVSGADTSVSSVDGPVSQKAVQNENSYQMEEDGSLKQSILSSELLDHPYCKSPLEAPLVCSGLKLENQVGGGKNSQKASPVDDEQLSVCLSGFLDEVMKKYGSLVPLSEKEVLGRLKDVFNEDFSNRKPFINREITNYRARHQKCNFRIFYNKHMLDMDDLATLDGQNWLNDQVINMYGELIMDAVPDKVHFFNSFFHRQLVTKGYNGVKRWTKKVDLFKKSLLLIPIHLEVHWSLITVTLSNRIISFYDSQGIHFKFCVENIRKYLLTEAREKNRPEFLQGWQTAVTKCIPQQKNDSDCGVFVLQYCKCLALEQPFQFSQEDMPRVRKRIYKELCECRLMD
binds | TRIM24 (protein, UniProt O15164 1-1050) MEVAVEKAVAAAAAASAAASGGPSAAPSGENEAESRQGPDSERGGEAARLNLLDTCAVCHQNIQSRAPKLLPCLHSFCQRCLPAPQRYLMLPAPMLGSAETPPPVPAPGSPVSGSSPFATQVGVIRCPVCSQECAERHIIDNFFVKDTTEVPSSTVEKSNQVCTSCEDNAEANGFCVECVEWLCKTCIRAHQRVKFTKDHTVRQKEEVSPEAVGVTSQRPVFCPFHKKEQLKLYCETCDKLTCRDCQLLEHKEHRYQFIEEAFQNQKVIIDTLITKLMEKTKYIKFTGNQIQNRIIEVNQNQKQVEQDIKVAIFTLMVEINKKGKALLHQLESLAKDHRMKLMQQQQEVAGLSKQLEHVMHFSKWAVSSGSSTALLYSKRLITYRLRHLLRARCDASPVTNNTIQFHCDPSFWAQNIINLGSLVIEDKESQPQMPKQNPVVEQNSQPPSGLSSNQLSKFPTQISLAQLRLQHMQQQVMAQRQQVQRRPAPVGLPNPRMQGPIQQPSISHQQPPPRLINFQNHSPKPNGPVLPPHPQQLRYPPNQNIPRQAIKPNPLQMAFLAQQAIKQWQISSGQGTPSTTNSTSSTPSSPTITSAAGYDGKAFGSPMIDLSSPVGGSYNLPSLPDIDCSSTIMLDNIVRKDTNIDHGQPRPPSNRTVQSPNSSVPSPGLAGPVTMTSVHPPIRSPSASSVGSRGSSGSSSKPAGADSTHKVPVVMLEPIRIKQENSGPPENYDFPVVIVKQESDEESRPQNANYPRSILTSLLLNSSQSSTSEETVLRSDAPDSTGDQPGLHQDNSSNGKSEWLDPSQKSPLHVGETRKEDDPNEDWCAVCQNGGELLCCEKCPKVFHLSCHVPTLTNFPSGEWICTFCRDLSKPEVEYDCDAPSHNSEKKKTEGLVKLTPIDKRKCERLLLFLYCHEMSLAFQDPVPLTVPDYYKIIKNPMDLSTIKKRLQEDYSMYSKPEDFVADFRLIFQNCAEFNEPDSEVANAGIKLENYFEELLKNLYPEKRFPKPEFRNESEDNKFSDDSDDDFVQPRKKRLKSIEERQLLK

Each molecule was assayed against T1, FLAG-NTurboID^194-SALL1^ΔSUMO (assay: proximity labelling; SALL1 SUMO-ID: HEK293FT TRIPZ-MYC-C-SUMO2nc stable cells transfected with FLAG-N-SALL1^WT or ^ΔSUMO, doxycycline 1 ug/mL 24 h, biotin 50 uM 4 h; NeutrAvidin pull-down, LC-MS/MS).

binding | Molecule
binds | BAZ1B (protein, UniProt Q9UIG0 1-1483) MAPLLGRKPFPLVKPLPGEEPLFTIPHTQEAFRTREEYEARLERYSERIWTCKSTGSSQLTHKEAWEEEQEVAELLKEEFPAWYEKLVLEMVHHNTASLEKLVDTAWLEIMTKYAVGEECDFEVGKEKMLKVKIVKIHPLEKVDEEATEKKSDGACDSPSSDKENSSQIAQDHQKKETVVKEDEGRRESINDRARRSPRKLPTSLKKGERKWAPPKFLPHKYDVKLQNEDKIISNVPADSLIRTERPPNKEIVRYFIRHNALRAGTGENAPWVVEDELVKKYSLPSKFSDFLLDPYKYMTLNPSTKRKNTGSPDRKPSKKSKTDNSSLSSPLNPKLWCHVHLKKSLSGSPLKVKNSKNSKSPEEHLEEMMKMMSPNKLHTNFHIPKKGPPAKKPGKHSDKPLKAKGRSKGILNGQKSTGNSKSPKKGLKTPKTKMKQMTLLDMAKGTQKMTRAPRNSGGTPRTSSKPHKHLPPAALHLIAYYKENKDREDKRSALSCVISKTARLLSSEDRARLPEELRSLVQKRYELLEHKKRWASMSEEQRKEYLKKKREELKKKLKEKAKERREKEMLERLEKQKRYEDQELTGKNLPAFRLVDTPEGLPNTLFGDVAMVVEFLSCYSGLLLPDAQYPITAVSLMEALSADKGGFLYLNRVLVILLQTLLQDEIAEDYGELGMKLSEIPLTLHSVSELVRLCLRRSDVQEESEGSDTDDNKDSAAFEDNEVQDEFLEKLETSEFFELTSEEKLQILTALCHRILMTYSVQDHMETRQQMSAELWKERLAVLKEENDKKRAEKQKRKEMEAKNKENGKVENGLGKTDRKKEIVKFEPQVDTEAEDMISAVKSRRLLAIQAKKEREIQEREMKVKLERQAEEERIRKHKAAAEKAFQEGIAKAKLVMRRTPIGTDRNHNRYWLFSDEVPGLFIEKGWVHDSIDYRFNHHCKDHTVSGDEDYCPRSKKANLGKNASMNTQHGTATEVAVETTTPKQGQNLWFLCDSQKELDELLNCLHPQGIRESQLKERLEKRYQDIIHSIHLARKPNLGLKSCDGNQELLNFLRSDLIEVATRLQKGGLGYVEETSEFEARVISLEKLKDFGECVIALQASVIKKFLQGFMAPKQKRRKLQSEDSAKTEEVDEEKKMVEEAKVASALEKWKTAIREAQTFSRMHVLLGMLDACIKWDMSAENARCKVCRKKGEDDKLILCDECNKAFHLFCLRPALYEVPDGEWQCPACQPATARRNSRGRNYTEESASEDSEDDESDEEEEEEEEEEEEEDYEVAGLRLRPRKTIRGKHSVIPPAARSGRRPGKKPHSTRRSQPKAPPVDDAEVDELVLQTKRSSRRQSLELQKCEEILHKIVKYRFSWPFREPVTRDEAEDYYDVITHPMDFQTVQNKCSCGSYRSVQEFLTDMKQVFTNAEVYNCRGSHVLSCMVKTEQCLVALLHKHLPGHPYVRRKRKKFPDRLAEDEGDSEPEAVGQSRGRRQKK

No constants are given. Whether binding was seen depends on the method and setting. Binding seen in cells or lysates may run through a third protein. Here binding means that the protein was enriched with, or labelled near, the bait; the list need not be complete. For part of these data: Where a sequence is shown, tags or fusion partners need not be part of it.
